Experimental data: PMC10716049
These are yes or no findings as the source states them, for the method shown. In cells and extracts the contact can be indirect.

Amino acid sequences for entries named in this document (tags omitted).
UniProt P10275: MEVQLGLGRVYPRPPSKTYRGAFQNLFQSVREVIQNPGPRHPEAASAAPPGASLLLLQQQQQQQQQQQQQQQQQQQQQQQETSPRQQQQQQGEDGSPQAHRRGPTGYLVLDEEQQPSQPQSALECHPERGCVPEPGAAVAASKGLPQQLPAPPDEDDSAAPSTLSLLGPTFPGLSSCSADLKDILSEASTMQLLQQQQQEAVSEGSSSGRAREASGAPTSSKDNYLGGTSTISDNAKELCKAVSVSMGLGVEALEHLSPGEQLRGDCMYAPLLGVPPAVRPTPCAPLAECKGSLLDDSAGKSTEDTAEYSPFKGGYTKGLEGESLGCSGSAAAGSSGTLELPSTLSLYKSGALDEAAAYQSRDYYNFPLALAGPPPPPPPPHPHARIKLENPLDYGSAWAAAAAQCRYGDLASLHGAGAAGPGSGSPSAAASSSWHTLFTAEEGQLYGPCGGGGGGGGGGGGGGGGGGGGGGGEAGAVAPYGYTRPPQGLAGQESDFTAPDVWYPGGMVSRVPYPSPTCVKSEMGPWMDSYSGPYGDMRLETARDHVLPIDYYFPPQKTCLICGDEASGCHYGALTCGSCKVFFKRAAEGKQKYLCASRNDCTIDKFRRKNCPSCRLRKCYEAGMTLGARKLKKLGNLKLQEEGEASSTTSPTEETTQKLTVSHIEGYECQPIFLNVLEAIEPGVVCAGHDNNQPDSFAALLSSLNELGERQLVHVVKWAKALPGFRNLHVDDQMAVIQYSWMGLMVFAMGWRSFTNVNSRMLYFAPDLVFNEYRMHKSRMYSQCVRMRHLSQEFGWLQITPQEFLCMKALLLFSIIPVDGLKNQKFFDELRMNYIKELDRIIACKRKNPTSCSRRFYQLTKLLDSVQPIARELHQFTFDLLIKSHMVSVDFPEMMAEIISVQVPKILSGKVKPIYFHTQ
UniProt P49790: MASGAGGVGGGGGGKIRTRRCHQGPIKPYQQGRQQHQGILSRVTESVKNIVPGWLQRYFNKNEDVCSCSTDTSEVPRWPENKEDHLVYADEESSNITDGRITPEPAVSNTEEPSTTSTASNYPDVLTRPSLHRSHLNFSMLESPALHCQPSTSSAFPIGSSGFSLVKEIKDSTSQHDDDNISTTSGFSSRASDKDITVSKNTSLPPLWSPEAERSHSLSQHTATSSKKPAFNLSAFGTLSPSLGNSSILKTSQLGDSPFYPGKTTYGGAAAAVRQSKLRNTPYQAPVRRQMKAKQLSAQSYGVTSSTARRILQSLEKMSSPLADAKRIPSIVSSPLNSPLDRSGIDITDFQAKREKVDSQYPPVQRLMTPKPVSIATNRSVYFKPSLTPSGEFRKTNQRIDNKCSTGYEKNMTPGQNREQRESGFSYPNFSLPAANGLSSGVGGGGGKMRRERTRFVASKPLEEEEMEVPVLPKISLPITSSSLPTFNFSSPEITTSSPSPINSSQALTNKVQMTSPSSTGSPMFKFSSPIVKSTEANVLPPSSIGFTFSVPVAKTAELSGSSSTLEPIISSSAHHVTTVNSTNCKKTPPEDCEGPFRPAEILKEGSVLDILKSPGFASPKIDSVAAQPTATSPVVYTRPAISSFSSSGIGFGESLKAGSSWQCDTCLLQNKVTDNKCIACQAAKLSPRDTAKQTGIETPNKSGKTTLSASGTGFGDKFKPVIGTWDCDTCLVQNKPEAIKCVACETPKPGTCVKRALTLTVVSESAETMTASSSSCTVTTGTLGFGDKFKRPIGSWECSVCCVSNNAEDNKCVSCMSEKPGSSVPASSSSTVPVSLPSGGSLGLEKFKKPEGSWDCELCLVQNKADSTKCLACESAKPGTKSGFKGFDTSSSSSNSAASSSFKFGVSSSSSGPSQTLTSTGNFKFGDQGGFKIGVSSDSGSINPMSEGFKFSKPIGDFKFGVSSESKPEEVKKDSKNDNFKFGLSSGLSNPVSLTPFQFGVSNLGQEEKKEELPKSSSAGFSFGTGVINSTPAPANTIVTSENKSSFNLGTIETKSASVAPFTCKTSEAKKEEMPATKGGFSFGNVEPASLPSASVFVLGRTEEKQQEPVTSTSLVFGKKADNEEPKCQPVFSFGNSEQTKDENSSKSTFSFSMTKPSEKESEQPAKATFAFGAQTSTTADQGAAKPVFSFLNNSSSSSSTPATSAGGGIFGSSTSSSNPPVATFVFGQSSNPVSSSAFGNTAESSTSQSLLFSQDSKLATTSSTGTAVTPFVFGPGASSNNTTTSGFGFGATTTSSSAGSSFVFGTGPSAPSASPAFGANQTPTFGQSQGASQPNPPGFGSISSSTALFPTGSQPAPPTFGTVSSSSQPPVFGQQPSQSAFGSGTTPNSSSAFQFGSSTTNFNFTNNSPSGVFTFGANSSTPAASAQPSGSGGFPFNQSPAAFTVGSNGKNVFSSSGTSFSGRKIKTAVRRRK

Biological target: FLAG-MTID-AR-WT (full-length wild-type androgen receptor fused to FLAG-tagged Mini-TurboID) (human) (UniProt P10275)
Assay: proximity ligation; Duolink PLA in fixed DHT-treated PC3 cells expressing FLAG-MTID-AR WT or 22YtoS; antibodies to AR and to MED1, ARID1A or NUP153; 50 uM biotin and 1 nM DHT for 2 h

binding: no binding
Substance: NUP153 (from UniProt P49790 1-1475)
